30 sequences from PubChem BioAssay AID1347426 (Functional Genomics Laboratory (NCATS/FGL), 2020) can be followed below.

Out of some 31,000 sequences screened, about 1,400 (4.5%) were called active.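 The calls were made as follows: active = median seed-adjusted z-score above 1 or below -1; inactive = the rest.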 Some of the results follow.

The assay can be described thus: Novel Modifiers of Survival Motor Neuron (SMN) Protein: Gene Identification via Genome-wide siRNA Screen.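 Also: luminescence tracks full-length SMN protein made from the SMN2 reporter.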 The conditions noted are these: HEK293T SMN2-luciferase reporter, siRNA knockdown, 72 h; actives lie on both sides. In short, it runs like this: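 Steps: spot 1 pmol siRNA, add Lipofectamine RNAiMax in serum-free DMEM, seed HEK293T SMN2–luciferase reporter cells; incubate 72 h at 37 °C; add ONE-Glo; normalize luminescence to control siRNA, log10, MAD. Candidates: |MAD| > 1.0.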
Background: In a reporter assay the amount or activity of a reporter protein is the signal.
Take GCACCUAUGAGGAAAAUGATT against LAMB2: the median seed-adjusted z-score is active: 1.12.

Turning to GCAUUCAUUUGAUGAUCGATT against DOCK10, the median seed-adjusted z-score was inactive: -0.201.

As to CCUUUGACCUGAAGAACAATT against CD4, the median seed-adjusted z-score is inactive: -0.566.

On to GGCUGAGAACAGUUCUAGATT against ZNF775, for which the median seed-adjusted z-score is inactive: 0.00364.

Take GGAUAUGAUGUUUCAGCUUTT against CDK6: the median seed-adjusted z-score is inactive: 0.

Turning to GACUUUUACUACACUGAGATT against ZNF704, the median seed-adjusted z-score is inactive: -0.15.

As for CAUACAAUACCAAAGUGUATT against LOXL2, the median seed-adjusted z-score is inactive: 0.177.

For the sequence GACUGUUCACGCAAGUUAATT against METAP2, the median seed-adjusted z-score is inactive: 0.325.

For CGAGGUUACACGUUACGAATT against DOCK1, the median seed-adjusted z-score is inactive: -0.235.

Turning to GAAGUUCGAGGUGAAGAAGTT against MAFA, the median seed-adjusted z-score is inactive: 0.424.

In the case of GAAGCUGUGAGAUAGAGAATT against LCN8, the median seed-adjusted z-score was inactive: 0.112.

Consider CCCUUGUCCUCAAGAUUUUTT against DMRT2, for which the median seed-adjusted z-score was inactive: -0.344.

As for GUGCCUUGCUAUUCUAAGATT against NEUROD1, the median seed-adjusted z-score is inactive: 0.

CUGUAGUAACUGCAAGCAATT against FHL1: the median seed-adjusted z-score is inactive: 0.574.

On to AGAGCUCACUCGUCCCAAUTT against CXCL16, for which the median seed-adjusted z-score is inactive: 0.201.

As for CCCACGAGUUUAGUUCAAATT against PIAS2, the median seed-adjusted z-score was inactive: -0.096.

CGAACGAUUUCCCAAGUUATT against NXF1: the median seed-adjusted z-score was active: -4.46.

Take GCAUGGUUGUGCCUUUAUUTT against MFSD9: the median seed-adjusted z-score is inactive: 0.36.

On to ACCGUAUUCUUCAUCCUAATT against CCL20, for which the median seed-adjusted z-score was inactive: -0.204.

As for CAAUCUACCUAAUCAAGCUTT against ROD1, the median seed-adjusted z-score was inactive: 0.42.

Turning to GAACUCAUGUCCGACAUAATT against STX1A, the median seed-adjusted z-score is inactive: 0.

As to GGAUUAGUGAUUAUAUGGATT against NPAS3, the median seed-adjusted z-score is inactive: -0.0316.

Turning to CCAGGAACCUAAGAGCGCATT against DDX11, the median seed-adjusted z-score was inactive: 0.

For the sequence AGAUAUAAGGCUCAGAAAATT against ADIPOR2, the median seed-adjusted z-score is inactive: -0.614.

Consider CCCUCGUUACUUUGGGUAATT against PDK3, for which the median seed-adjusted z-score is inactive: 0.232.

For CCACUAUGGAGACUGAAAATT against TP53RK, the median seed-adjusted z-score is inactive: 0.

In the case of UGGUGAUGAUUGGAAUGUUTT against KCNE2, the median seed-adjusted z-score is inactive: -0.666.

Consider CCAUUACCUUUCUAAGUAUTT against ZADH2, for which the median seed-adjusted z-score is inactive: -0.47.

Consider GCAGUGUCUCGAGAACUUATT against PDE6D, for which the median seed-adjusted z-score is inactive: 0.

Consider GGGCACCGAUGAGAUCAAATT against PIAS1, for which the median seed-adjusted z-score is inactive: -0.0367.
